Test results from publication doi:10.1101/102442.
Results are given in words; binding and its absence hold for the method and conditions named. In cells and extracts the contact can be indirect. Binding calls can cover weak binding; strength is not graded here. Tags and fused reporters may be left off the sequences shown.

Target: mCherry-tagged mL1-ORF1p (mouse)
Assay: co-IP

binding: binds weakly
B1: TEX19.1-YFP (HEK293 / HEK293T cells) (protein, UniProt Q99MV2 1-351)
chain: MCPPVSVRHGARGMSCLYEAWLYHLVHGEQTKICFACFKAAFLLNKLYLEMGDWQEEEEEEEEEDADLLEYLSESESESEQEPGPEQDAWRGLGSLYVPQSVSEGSGVLLPTPVWTQGILFSIFVPTELFPQEAVPLDLGPEDAEWTQALPWRLDGLFPCSHQLIPPLTWWDIFDVMPSPGQPVLLELRCHWPLDQTVAQSWLQDQKFVLLLDSVQSRCHLLSMRVRWVVRTQVQHWQVLLDPGEMWVAHFRKEVGQHGLYHQSLNPWRLSILTASELGMELLPATCYLWNKGFWVGSFLPWHINMPETWSWEPGERLFITDATICGTDYHLAQSFLDSHPTPHPLLTLTP
